Test results published in patent US20210220489A1, “AMYGDALAR NEURAL ENSEMBLE THAT ENCODES THE UNPL[…] PAIN” (The Board of Trustees of the Leland Stanford Junior …, priority 2020, published 2021).

Legend:
noci-TRAP^hM4 mice [1] = assay: Elevated plus maze; type: in vivo
noci-TRAP^hM4 mice [2] = assay: Sucrose-water preference assay; type: in vivo

C[N+]1([O-])CCN(C2=Nc3cc(Cl)ccc3Nc3ccccc32)CC1 [CNO, clozapine-N-oxide]
average velocity (noci-TRAP^hM4 mice [1]; CNO 10 mg/kg versus saline): No effect | total distance traveled (noci-TRAP^hM4 mice [1]; CNO 10 mg/kg versus saline): No effect | visits to and occupancy of the open arms (noci-TRAP^hM4 mice [1]; saline or CNO): equivalent | % sucrose preference over water (noci-TRAP^hM4 mice [2]; first and second days (Sessions 1 and 2), versus saline): significant sucrose preference | sucrose preference development (noci-TRAP^hM4 mice [2]; relative to controls): no retarding effects | lick rates (noci-TRAP^hM4 mice [2]; relative to controls, 10% sucrose spout): no retarding effects | sucrose reward (noci-TRAP^hM4 mice [2]; sucrose-naïve conditions): enhanced
